Values joined by “and” are separate entries in the source; they are usually repeats but may differ in a detail not shown here. Equal entries are not always repeated. Screen size: about 580,000 compounds; about 6,100 (1.1%) were called active. This list was built around the results that the source calls inconclusive (neither active nor inactive); the mix of calls is not that of the screen. Calls come from the whole dose curve; as a rule, active = well fitted inhibition curve with a large enough effect; inconclusive = small, poorly fitted or top-dose-only effect, or another doubt; inactive = no such curve, though single readings can be large or run the other way. Potencies of inconclusive entries are doubtful fits and often do not repeat. Some compounds were tested as several samples or in several runs, with calls that do not always agree.
The compounds below were run against Polyunsaturated fatty acid lipoxygenase ALOX12 (Homo sapiens) (UniProt P18054) (assay: Primary qHTS assay for inhibitors of human arachidonate 12S-lipoxygenase (ALOX12): Round 2). Settings: purified 12hLO, xylenol orange hydroperoxide absorbance; activity change, negative = inhibition: at 108 µM (top of the series) unless noted.
Summary of the method: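 Hydroperoxide product was detected by ferrous iron/xylenol orange as the 573 to 405 nm absorbance ratio. Arachidonic acid at 40 uM (final) was turned over for 30 min at room temperature by 150 nM human 12hLO, pH 7.0 Hepes buffer, after 15 min compound preincubation.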
% is set by controls: 0 for no effect and ±100 for the full control effect; potency is the fitted concentration of half-maximal effect.

Protein sequences, listed by entry. Tags and fused reporters are not part of them.
UniProt P18054, whole entry, looked up: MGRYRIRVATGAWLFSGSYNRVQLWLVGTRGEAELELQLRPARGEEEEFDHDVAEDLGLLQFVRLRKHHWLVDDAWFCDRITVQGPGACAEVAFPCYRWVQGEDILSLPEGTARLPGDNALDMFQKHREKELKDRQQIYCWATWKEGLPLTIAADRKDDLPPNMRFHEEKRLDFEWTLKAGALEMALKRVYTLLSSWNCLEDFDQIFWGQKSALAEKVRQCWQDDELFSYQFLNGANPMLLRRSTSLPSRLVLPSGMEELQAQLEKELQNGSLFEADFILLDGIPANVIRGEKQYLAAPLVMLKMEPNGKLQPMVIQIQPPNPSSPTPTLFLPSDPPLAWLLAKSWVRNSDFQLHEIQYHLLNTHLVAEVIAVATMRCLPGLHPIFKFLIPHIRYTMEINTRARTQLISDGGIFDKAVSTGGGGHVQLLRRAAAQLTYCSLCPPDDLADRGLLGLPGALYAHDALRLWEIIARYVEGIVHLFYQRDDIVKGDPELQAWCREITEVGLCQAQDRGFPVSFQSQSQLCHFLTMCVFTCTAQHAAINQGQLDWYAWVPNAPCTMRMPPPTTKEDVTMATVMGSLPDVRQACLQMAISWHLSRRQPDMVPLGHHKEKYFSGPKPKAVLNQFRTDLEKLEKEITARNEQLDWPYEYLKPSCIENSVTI

SMILES	Potency	activity change, negative = inhibition
O=C(O)CC1(CC(=O)Nc2ccccc2N2CCOCC2)CCCC1	inconclusive: 5.62 µM [inhibitor, partial curve, poor fit]	–
Cc1ccc(NC(=O)C(=O)NCCOc2ccc(Cl)cc2)c(C)c1	inconclusive: 0.631 µM [inhibitor, full curve, poor fit]	–
CC(C)(C)c1ccc(-c2nc(C#N)c(N3CCCCC3)o2)cc1	–	inactive: 0.0699%
O=C(Cn1nc2n(c1=O)CCCCC2)Nc1ccc(Cl)cc1	–	inactive: 36.9%
CCNC(=S)NCC12CC3CC(CC(C3)C1)C2	active: 39.8 µM	–
Cc1ccc(S(=O)(=O)Nc2ccc(NC(=O)CN3CCCCC3)c(Cl)c2)cc1	inconclusive: 56.2 µM [inhibitor, partial curve, poor fit]	–
COc1ccc(CC(=O)Nc2ccc(C(=O)O)cc2NC(=O)Cc2ccc(OC)cc2)cc1	inconclusive: 50.1 µM [inhibitor, partial curve, poor fit]	–
N/C(=N\OC(=O)c1ccc(Cl)cc1[N+](=O)[O-])c1cccnc1	inconclusive: 89.1 µM [inhibitor, single point]	–
CCCc1cc(C(=O)N2CCCN(C)CC2)cs1	inconclusive: 100 µM [inhibitor, partial curve, poor fit]	–
O=C(Nc1ccn(CCCNCCN2CCOCC2)c(=O)n1)OCc1ccccc1	–	inactive: 25%
O=C(Nc1ccc(-c2nc3ccccc3o2)cc1)c1ccc(N2CCOCC2)c([N+](=O)[O-])c1	–	inactive: 9.28%
CCCCc1oc2ccc(NS(C)(=O)=O)cc2c1C(=O)c1ccc(OCCCN(CCCC)CCCC)cc1	inconclusive: 19.3 µM [inhibitor, partial curve, poor fit] and active: 39.8 µM	–
CCOc1ccccc1CNC(=O)CCCc1cn(C)c2ccccc12	–	inactive: -14.4%
CC(C)S(=O)(=O)c1nsc2nc(=O)c(/C=C3\C=Nc4ccccc43)c(N)n12	inconclusive: 100 µM [inhibitor, single point]	–
Cc1cc(C)n2nc(C(=O)Nc3nnc(C4CC4)s3)nc2n1	inconclusive: 3.16 µM [inhibitor, full curve, poor fit]	–
COc1cc(-c2nc(-c3c(C)noc3C)cc3cc(CN(C)C)oc23)ccn1	inconclusive: 56.2 µM [inhibitor, full curve, poor fit]	–
Cc1ccc(C)c(N(C)C(=O)C2CCN(c3ncnc4c3nc3n4CCCCC3)CC2)c1	–	inactive: 2.5%
Nc1nnc(COc2cccc(C(F)(F)F)c2)s1	–	inactive: 414%
CCN(CC)CCCC(C)NC(=O)c1c(NC(=O)c2ccccc2)sc2c1CCCC2 (centres undefined)	inconclusive: 0.224 µM [inhibitor, full curve, poor fit]	–
COc1cc(NC(=O)CN2CCN(Cc3ccc4c(c3)OCO4)CC2)cc(OC)c1	inconclusive: 0.0891 µM [inhibitor, full curve, poor fit]	–
CCOc1ccc(C2C(C#N)=C(N)SC(N)=C2C#N)cc1OCC	inconclusive: 44.7 µM [inhibitor, partial curve, poor fit]	–
CC1(C)CC(NC(=O)C2CCN(S(=O)(=O)c3ccccc3)CC2)CC(C)(C)N1	–	inactive: 5.59%

Gathered by group, the entries above containing a furan ring, fused or not
SMILES	Potency	activity change, negative = inhibition
CCCCc1oc2ccc(NS(C)(=O)=O)cc2c1C(=O)c1ccc(OCCCN(CCCC)CCCC)cc1	inconclusive: 19.3 µM [inhibitor, partial curve, poor fit] and active: 39.8 µM	–
COc1cc(-c2nc(-c3c(C)noc3C)cc3cc(CN(C)C)oc23)ccn1	inconclusive: 56.2 µM [inhibitor, full curve, poor fit]	–

(continued)

SMILES	Potency	activity change, negative = inhibition
CCOC(=O)Cc1csc(NC(=O)c2ccc(S(=O)(=O)N3CCCCC3)cc2)n1	–	inactive: 0%
COc1ccc(-n2c(-c3cnccn3)n[nH]c2=S)cc1	inconclusive: 35.5 µM [inhibitor, partial curve, poor fit]	–
Cc1cccc(NC(=O)c2ccc3c(c2)C(=O)N(c2ccccc2C)C3=O)n1	–	inactive: -8.9%
CCCCCN1CC(=O)N2Cc3[nH]c4ccccc4c3C[C@H]2C1=O	inconclusive: 63.1 µM [inhibitor, single point]	–
C/C(=N\NC(=O)C(c1ccccc1)c1ccccc1)c1cccs1	–	inactive: 17.4%
Cn1c(=O)c(CCc2ccccc2)nc2cnc(Nc3ccccc3)nc21	inconclusive: 39.8 µM [inhibitor, partial curve, poor fit]	–
Cc1ccc(-c2cnc(CCC(=O)Nc3ccc(C)c(F)c3)o2)cc1C	inconclusive: 89.1 µM [inhibitor, single point]	–
CC1(C)C2CCC1(C)C(OC(=O)CNc1ccccc1)C2 (centres undefined)	–	inactive: 10.4%
O=C(Nc1ccccc1C(=O)O)c1cccc(NS(=O)(=O)c2ccc(Br)cc2)c1	active: 39.8 µM	–
CCc1nc2ccc(C(=O)N3CCN(S(=O)(=O)CC)CC3)cn2c1N(CC)CCOC	inconclusive: 56.2 µM [inhibitor, partial curve, poor fit]	–
CC(C)(C)C1CCC2(CC1)C(C#N)=C(SCC(=O)NC1CCCCC1)NC(=O)C2C#N (centres undefined)	–	inactive: -12.9%
COC(=O)c1sc(-c2cccs2)cc1N	inconclusive: 39.8 µM [inhibitor, partial curve, poor fit]	–
O=C(O)c1cccc(Nc2c3ccccc3nc3ccccc23)c1	inconclusive: 7.94 µM [inhibitor, full curve, poor fit]	–
CC1CC(C)CN(c2cc(N(C)CCO)c([N+](=O)[O-])c3nonc23)C1 (centres undefined)	–	inactive: -12.8%
CC(OC(=O)c1ccc(C(N)=O)cc1)C(=O)NC(C)c1ccccc1 (centres undefined)	inconclusive: 22.4 µM [inhibitor, partial curve, poor fit]	–
Cc1ccc2nc(N3CCN(C(=O)c4ccc(F)cc4)CC3)c(C#N)cc2c1	inconclusive: 17.8 µM [inhibitor, full curve]	–
Cc1ccccc1CNC(=O)c1nn(-c2ccccc2Cl)nc1CO	–	inactive: 14.6%
CC(O)CNCCOc1ccccc1-c1ccccc1 (centres undefined)	inconclusive: 0.562 µM [inhibitor, full curve, poor fit]	–
N#Cc1c(-c2ccco2)nc(SCC(=O)Nc2cccc(Cl)c2)[nH]c1=O	active: 22.4 µM	–
CCCc1noc(-c2ccn3c(CNC(=O)c4cc(F)ccc4F)nnc3c2)n1	inconclusive: 50.1 µM [inhibitor, partial curve]	–
Cc1cc(C)cc(C(=O)NC2CCCCCCC2)c1	inconclusive: 12.6 µM [inhibitor, full curve, poor fit]	–
COc1ccc(CCN2C(=O)c3[nH]nc(-c4ccccc4O)c3C2c2ccc(O)c(OC)c2)cc1 (centres undefined)	inconclusive: 35.5 µM [inhibitor, partial curve, poor fit]	–
